The list shows a part of the results.
Key:
Assay in all cases: glycan array binding signal (z-score within array); higher = stronger binding
Details in all cases: glycan notation: IUPAC condensed, linker removed; mutation: Y54A
[1] = molecular target: Gal3S(b1-3)[Fuc(a1-4)]GlcNAc
Method in brief: (§1)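 Arrays were curated from the Consortium for Functional Glycomics database, 3228 in total, and kept only where the protein sequence was available. Binding is expressed as a within-array Z-score. This score was averaged across arrays of the same protein sequence at different concentrations or buffers and across linkers, and negative values can be read as non-binding.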

Gal3S(b1-4)Glc = molecular target: Gal3S(b1-4)Glc
Method in brief: as §1

Gal3S(b1-4)Glc6S = molecular target: Gal3S(b1-4)Glc6S
Method in brief: as §1

Gal3S(b1-4)GlcNAc = molecular target: Gal3S(b1-4)GlcNAc
Method in brief: as §1

[2] = molecular target: Gal3S(b1-4)[Fuc(a1-3)]Glc6S
Method in brief: as §1

[3] = molecular target: Gal3S(b1-4)[Fuc(a1-3)]GlcNAc
Method in brief: as §1

[4] = molecular target: Gal3S(b1-4)[Fuc(a1-3)]GlcNAc6S
Method in brief: as §1

Gal3S4S(b1-4)GlcNAc = molecular target: Gal3S4S(b1-4)GlcNAc
Method in brief: as §1

Gal3S6S(b1-4)GlcNAc = molecular target: Gal3S6S(b1-4)GlcNAc
Method in brief: as §1

Gal3S6S(b1-4)GlcNAc6S = molecular target: Gal3S6S(b1-4)GlcNAc6S
Method in brief: as §1

Gal4S(b1-4)GlcNAc = molecular target: Gal4S(b1-4)GlcNAc
Method in brief: as §1

Gal4S6S(b1-4)GlcNAc = molecular target: Gal4S6S(b1-4)GlcNAc
Method in brief: as §1

Gal6P(b1-4)GlcNAc = molecular target: Gal6P(b1-4)GlcNAc
Method in brief: as §1

Gal6S(b1-3)GlcNAc = molecular target: Gal6S(b1-3)GlcNAc
Method in brief: as §1

Gal6S(b1-3)GlcNAc6S = molecular target: Gal6S(b1-3)GlcNAc6S
Method in brief: as §1

Gal6S(b1-4)Glc = molecular target: Gal6S(b1-4)Glc
Method in brief: as §1

Gal6S(b1-4)Glc6S = molecular target: Gal6S(b1-4)Glc6S
Method in brief: as §1

Gal6S(b1-4)GlcNAc = molecular target: Gal6S(b1-4)GlcNAc
Method in brief: as §1

Gal6S(b1-4)GlcNAc6S = molecular target: Gal6S(b1-4)GlcNAc6S
Method in brief: as §1

GalNAc(a1-3)Gal = molecular target: GalNAc(a1-3)Gal
Method in brief: as §1

GalNAc(a1-3)GalNAc = molecular target: GalNAc(a1-3)GalNAc
Method in brief: as §1

[5] = molecular target: GalNAc(a1-3)GalNAc(b1-3)Gal(a1-4)Gal(b1-4)Glc
Method in brief: as §1

[6] = molecular target: GalNAc(a1-3)GalNAc(b1-3)Gal(a1-4)Gal(b1-4)GlcNAc
Method in brief: as §1

GalNAc(b1-3)Gal = molecular target: GalNAc(b1-3)Gal
Method in brief: as §1

[7] = molecular target: GalNAc(b1-3)Gal(a1-4)Gal(b1-4)GlcNAc
Method in brief: as §1

[8] = molecular target: GalNAc(b1-3)Gal(a1-4)Gal(b1-4)GlcNAc(b1-3)Gal(b1-4)Glc
Method in brief: as §1

[9] = molecular target: GalNAc(b1-3)Gal(a1-6)Gal(b1-4)Glc
Method in brief: as §1

GalNAc(b1-3)GalNAc = molecular target: GalNAc(b1-3)GalNAc
Method in brief: as §1

GalNAc(b1-3)GlcNAc = molecular target: GalNAc(b1-3)GlcNAc
Method in brief: as §1

GalNAc(b1-4)Gal(b1-4)Glc = molecular target: GalNAc(b1-4)Gal(b1-4)Glc
Method in brief: as §1

GalNAc(b1-4)GlcNAc = molecular target: GalNAc(b1-4)GlcNAc
Method in brief: as §1

[10] = molecular target: GalNAc(b1-4)GlcNAc(b1-2)Man
Method in brief: as §1

[11] = molecular target: GalNAc(b1-4)GlcNAc(b1-2)Man(a1-3)[GalNAc(b1-4)GlcNAc(b1-2)Man(a1-6)]Man(b1-4)GlcNAc(b1-4)GlcNAc
Method in brief: as §1

[12] = molecular target: GalNAc(b1-4)GlcNAc(b1-3)GalNAc(b1-4)GlcNAc
Method in brief: as §1

GalNAc(b1-4)GlcNAc6S = molecular target: GalNAc(b1-4)GlcNAc6S
Method in brief: as §1

GalNAc(b1-6)GalNAc = molecular target: GalNAc(b1-6)GalNAc
Method in brief: as §1

GalNAc3S(b1-4)GlcNAc = molecular target: GalNAc3S(b1-4)GlcNAc
Method in brief: as §1

GalNAc3S(b1-4)GlcNAc3S = molecular target: GalNAc3S(b1-4)GlcNAc3S
Method in brief: as §1

[13] = molecular target: GalNAc3S(b1-4)[Fuc(a1-3)]GlcNAc
Method in brief: as §1

GalNAc4S6S(b1-4)GlcNAc = molecular target: GalNAc4S6S(b1-4)GlcNAc
Method in brief: as §1

GalNAc6S(b1-4)GlcNAc = molecular target: GalNAc6S(b1-4)GlcNAc
Method in brief: as §1

Glc(a1-4)Glc = molecular target: Glc(a1-4)Glc
Method in brief: as §1

[14] = molecular target: Glc(a1-4)Glc(a1-4)Glc(a1-4)Glc
Method in brief: as §1

Glc(a1-6)Glc(a1-6)Glc = molecular target: Glc(a1-6)Glc(a1-6)Glc
Method in brief: as §1

[15] = molecular target: Glc(a1-6)Glc(a1-6)Glc(a1-6)Glc
Method in brief: as §1

B1: CBP21 (Serratia marcescens), O83009 (protein)
chain: MNKTSRTLLSLGLLSAAMFGVSQQANAHGYVESPASRAYQCKLQLNTQCGSVQAEPQSVEGLKGFPQAGPADGHIASADKSTFFELDQQTPTRWNKLNLKTGPNSFTWKLTARHSTTSWRYFITKPNWDASQPLTRASFDLTPFCQFNDGGAIPAAQVTHQCNIPADRSGSHVILAVWDIADTANAFYQAIDVNLSK
glycan array binding signal (z-score) [1]: 0.769
glycan array binding signal (z-score) (Gal3S(b1-4)Glc): 0.137
glycan array binding signal (z-score) (Gal3S(b1-4)Glc6S): 0.102
glycan array binding signal (z-score) (Gal3S(b1-4)GlcNAc): -0.02
glycan array binding signal (z-score) [2]: -0.341
glycan array binding signal (z-score) [3]: -0.299
glycan array binding signal (z-score) [4]: -0.109
glycan array binding signal (z-score) (Gal3S4S(b1-4)GlcNAc): 0.495
glycan array binding signal (z-score) (Gal3S6S(b1-4)GlcNAc): -0.128
glycan array binding signal (z-score) (Gal3S6S(b1-4)GlcNAc6S): 4.88
glycan array binding signal (z-score) (Gal4S(b1-4)GlcNAc): -0.419
glycan array binding signal (z-score) (Gal4S6S(b1-4)GlcNAc): 0.517
glycan array binding signal (z-score) (Gal6P(b1-4)GlcNAc): 0.775
glycan array binding signal (z-score) (Gal6S(b1-3)GlcNAc): -0.43
glycan array binding signal (z-score) (Gal6S(b1-3)GlcNAc6S): 0.173
glycan array binding signal (z-score) (Gal6S(b1-4)Glc): -0.736
glycan array binding signal (z-score) (Gal6S(b1-4)Glc6S): -0.612
glycan array binding signal (z-score) (Gal6S(b1-4)GlcNAc): 4.2
glycan array binding signal (z-score) (Gal6S(b1-4)GlcNAc6S): 2.1
glycan array binding signal (z-score) (GalNAc(a1-3)Gal): -1.38
glycan array binding signal (z-score) (GalNAc(a1-3)GalNAc): -0.29
glycan array binding signal (z-score) [5]: 0.368
glycan array binding signal (z-score) [6]: -0.106
glycan array binding signal (z-score) (GalNAc(b1-3)Gal): -0.333
glycan array binding signal (z-score) [7]: -0.186
glycan array binding signal (z-score) [8]: -0.857
glycan array binding signal (z-score) [9]: 0.018
glycan array binding signal (z-score) (GalNAc(b1-3)GalNAc): -0.995
glycan array binding signal (z-score) (GalNAc(b1-3)GlcNAc): -1.21
glycan array binding signal (z-score) (GalNAc(b1-4)Gal(b1-4)Glc): -0.182
glycan array binding signal (z-score) (GalNAc(b1-4)GlcNAc): 0.593
glycan array binding signal (z-score) [10]: -0.018
glycan array binding signal (z-score) [11]: -1.16
glycan array binding signal (z-score) [12]: -0.533
glycan array binding signal (z-score) (GalNAc(b1-4)GlcNAc6S): -0.738
glycan array binding signal (z-score) (GalNAc(b1-6)GalNAc): -0.944
glycan array binding signal (z-score) (GalNAc3S(b1-4)GlcNAc): 0.647
glycan array binding signal (z-score) (GalNAc3S(b1-4)GlcNAc3S): 0.127
glycan array binding signal (z-score) [13]: 0.039
glycan array binding signal (z-score) (GalNAc4S6S(b1-4)GlcNAc): 0.112
glycan array binding signal (z-score) (GalNAc6S(b1-4)GlcNAc): 0.071
glycan array binding signal (z-score) (Glc(a1-4)Glc): -0.336
glycan array binding signal (z-score) [14]: 0.407
glycan array binding signal (z-score) (Glc(a1-6)Glc(a1-6)Glc): 0.674
glycan array binding signal (z-score) [15]: 0.183

Reference: the supplement of paper PMC8728848
